We go through 25 molecules from PMC5707401.

Amino acid sequences for entries named in this document (tags omitted).
UniProt Q9UMS4: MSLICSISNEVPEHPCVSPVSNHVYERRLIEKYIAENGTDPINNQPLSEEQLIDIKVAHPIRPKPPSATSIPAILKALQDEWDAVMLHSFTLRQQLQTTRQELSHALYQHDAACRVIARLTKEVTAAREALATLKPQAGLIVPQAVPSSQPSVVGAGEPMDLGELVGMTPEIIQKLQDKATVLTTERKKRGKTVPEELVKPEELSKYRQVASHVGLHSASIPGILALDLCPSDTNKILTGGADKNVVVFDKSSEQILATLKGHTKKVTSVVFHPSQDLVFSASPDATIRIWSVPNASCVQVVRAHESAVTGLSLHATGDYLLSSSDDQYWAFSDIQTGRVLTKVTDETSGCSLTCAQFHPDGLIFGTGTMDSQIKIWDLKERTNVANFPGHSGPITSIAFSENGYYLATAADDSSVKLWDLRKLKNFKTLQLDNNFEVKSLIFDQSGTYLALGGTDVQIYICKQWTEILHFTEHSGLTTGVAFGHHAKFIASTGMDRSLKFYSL
UniProt Q14676: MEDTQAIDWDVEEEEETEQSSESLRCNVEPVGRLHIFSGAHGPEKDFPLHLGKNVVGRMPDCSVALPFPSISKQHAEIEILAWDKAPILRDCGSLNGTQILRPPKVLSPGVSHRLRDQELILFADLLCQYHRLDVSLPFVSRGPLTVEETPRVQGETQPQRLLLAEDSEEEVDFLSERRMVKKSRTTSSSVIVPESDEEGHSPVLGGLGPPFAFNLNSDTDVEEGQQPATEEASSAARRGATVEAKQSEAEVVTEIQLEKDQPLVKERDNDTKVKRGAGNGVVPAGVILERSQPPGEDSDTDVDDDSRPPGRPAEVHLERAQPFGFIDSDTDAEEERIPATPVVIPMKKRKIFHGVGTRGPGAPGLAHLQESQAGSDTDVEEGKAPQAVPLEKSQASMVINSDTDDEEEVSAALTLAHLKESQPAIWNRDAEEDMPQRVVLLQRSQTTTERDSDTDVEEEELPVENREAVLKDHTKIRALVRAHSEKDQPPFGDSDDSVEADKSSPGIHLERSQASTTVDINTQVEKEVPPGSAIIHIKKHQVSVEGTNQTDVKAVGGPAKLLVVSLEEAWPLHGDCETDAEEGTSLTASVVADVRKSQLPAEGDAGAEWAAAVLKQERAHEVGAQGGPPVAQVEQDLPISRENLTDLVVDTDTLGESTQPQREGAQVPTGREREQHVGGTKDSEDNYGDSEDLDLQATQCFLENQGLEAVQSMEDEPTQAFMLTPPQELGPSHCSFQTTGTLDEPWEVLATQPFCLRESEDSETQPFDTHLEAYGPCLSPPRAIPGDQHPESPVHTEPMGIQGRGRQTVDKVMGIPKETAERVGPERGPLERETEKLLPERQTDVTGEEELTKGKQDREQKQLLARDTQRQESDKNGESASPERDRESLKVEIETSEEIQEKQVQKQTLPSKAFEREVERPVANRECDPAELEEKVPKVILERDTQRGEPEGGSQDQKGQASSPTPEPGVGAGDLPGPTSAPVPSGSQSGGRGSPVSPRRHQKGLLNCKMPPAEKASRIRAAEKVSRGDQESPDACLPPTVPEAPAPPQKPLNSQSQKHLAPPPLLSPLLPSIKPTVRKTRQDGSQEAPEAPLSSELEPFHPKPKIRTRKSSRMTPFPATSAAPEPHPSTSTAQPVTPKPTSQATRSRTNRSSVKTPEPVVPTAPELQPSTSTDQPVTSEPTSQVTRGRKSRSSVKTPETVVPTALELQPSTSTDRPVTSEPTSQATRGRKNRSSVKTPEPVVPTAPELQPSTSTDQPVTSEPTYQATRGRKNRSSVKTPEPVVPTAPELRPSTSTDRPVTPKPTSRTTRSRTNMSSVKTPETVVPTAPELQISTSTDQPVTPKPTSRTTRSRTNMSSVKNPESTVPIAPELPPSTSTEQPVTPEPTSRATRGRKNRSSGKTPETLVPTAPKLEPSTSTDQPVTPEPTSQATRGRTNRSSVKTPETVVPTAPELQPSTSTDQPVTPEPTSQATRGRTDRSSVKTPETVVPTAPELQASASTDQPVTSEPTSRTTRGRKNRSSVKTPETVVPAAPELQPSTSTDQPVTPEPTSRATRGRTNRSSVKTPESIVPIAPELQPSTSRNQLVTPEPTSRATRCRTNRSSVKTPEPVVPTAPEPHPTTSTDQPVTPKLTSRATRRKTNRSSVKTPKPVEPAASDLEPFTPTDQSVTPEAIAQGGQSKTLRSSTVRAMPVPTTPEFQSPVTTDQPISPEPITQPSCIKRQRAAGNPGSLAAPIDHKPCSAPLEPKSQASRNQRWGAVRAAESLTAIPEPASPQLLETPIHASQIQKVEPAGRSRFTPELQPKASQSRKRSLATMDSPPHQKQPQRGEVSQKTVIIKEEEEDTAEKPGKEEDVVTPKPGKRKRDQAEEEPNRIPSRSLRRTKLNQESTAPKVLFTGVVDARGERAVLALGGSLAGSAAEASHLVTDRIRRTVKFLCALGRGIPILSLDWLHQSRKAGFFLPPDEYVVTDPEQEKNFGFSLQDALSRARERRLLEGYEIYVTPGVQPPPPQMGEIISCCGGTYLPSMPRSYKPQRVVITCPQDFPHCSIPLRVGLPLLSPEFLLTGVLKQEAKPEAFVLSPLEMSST
UniProt Q9UHV9: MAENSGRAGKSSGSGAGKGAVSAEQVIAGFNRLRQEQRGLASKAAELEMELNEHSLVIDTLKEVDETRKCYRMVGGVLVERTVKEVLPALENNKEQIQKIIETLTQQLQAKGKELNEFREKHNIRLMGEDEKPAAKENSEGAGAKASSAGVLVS
UniProt P62191: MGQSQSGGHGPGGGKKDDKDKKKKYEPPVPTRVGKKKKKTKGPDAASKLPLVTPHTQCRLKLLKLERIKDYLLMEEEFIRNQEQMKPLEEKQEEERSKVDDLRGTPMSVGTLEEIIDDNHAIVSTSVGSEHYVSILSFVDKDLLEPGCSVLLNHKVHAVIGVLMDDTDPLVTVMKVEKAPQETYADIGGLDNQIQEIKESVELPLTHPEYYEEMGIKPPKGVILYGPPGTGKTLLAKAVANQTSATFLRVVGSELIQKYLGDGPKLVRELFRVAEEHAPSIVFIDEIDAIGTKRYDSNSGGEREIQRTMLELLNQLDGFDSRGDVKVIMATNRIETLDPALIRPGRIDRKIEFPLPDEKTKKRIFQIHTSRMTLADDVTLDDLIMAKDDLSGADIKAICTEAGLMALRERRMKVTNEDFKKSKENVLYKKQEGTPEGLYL
UniProt P62195: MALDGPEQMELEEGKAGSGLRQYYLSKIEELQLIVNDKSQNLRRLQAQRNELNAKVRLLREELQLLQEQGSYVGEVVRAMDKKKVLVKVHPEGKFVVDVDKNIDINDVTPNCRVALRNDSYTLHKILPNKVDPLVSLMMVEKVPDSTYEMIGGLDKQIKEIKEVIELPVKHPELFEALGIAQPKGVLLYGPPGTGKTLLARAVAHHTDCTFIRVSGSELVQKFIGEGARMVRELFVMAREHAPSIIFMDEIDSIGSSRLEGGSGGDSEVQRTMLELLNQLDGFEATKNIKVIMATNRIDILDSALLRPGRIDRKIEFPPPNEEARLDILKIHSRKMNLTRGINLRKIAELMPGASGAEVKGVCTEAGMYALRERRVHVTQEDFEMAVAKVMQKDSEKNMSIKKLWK
UniProt P62333: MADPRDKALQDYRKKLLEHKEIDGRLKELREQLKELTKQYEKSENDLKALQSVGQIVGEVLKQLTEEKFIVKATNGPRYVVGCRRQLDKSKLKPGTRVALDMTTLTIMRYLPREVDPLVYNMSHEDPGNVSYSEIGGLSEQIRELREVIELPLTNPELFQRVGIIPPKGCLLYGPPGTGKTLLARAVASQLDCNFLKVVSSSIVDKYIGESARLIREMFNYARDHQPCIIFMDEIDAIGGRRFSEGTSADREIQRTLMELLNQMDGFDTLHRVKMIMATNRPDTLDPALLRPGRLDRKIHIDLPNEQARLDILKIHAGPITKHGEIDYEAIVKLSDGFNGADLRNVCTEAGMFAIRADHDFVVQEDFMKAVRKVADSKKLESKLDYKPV
UniProt O75643: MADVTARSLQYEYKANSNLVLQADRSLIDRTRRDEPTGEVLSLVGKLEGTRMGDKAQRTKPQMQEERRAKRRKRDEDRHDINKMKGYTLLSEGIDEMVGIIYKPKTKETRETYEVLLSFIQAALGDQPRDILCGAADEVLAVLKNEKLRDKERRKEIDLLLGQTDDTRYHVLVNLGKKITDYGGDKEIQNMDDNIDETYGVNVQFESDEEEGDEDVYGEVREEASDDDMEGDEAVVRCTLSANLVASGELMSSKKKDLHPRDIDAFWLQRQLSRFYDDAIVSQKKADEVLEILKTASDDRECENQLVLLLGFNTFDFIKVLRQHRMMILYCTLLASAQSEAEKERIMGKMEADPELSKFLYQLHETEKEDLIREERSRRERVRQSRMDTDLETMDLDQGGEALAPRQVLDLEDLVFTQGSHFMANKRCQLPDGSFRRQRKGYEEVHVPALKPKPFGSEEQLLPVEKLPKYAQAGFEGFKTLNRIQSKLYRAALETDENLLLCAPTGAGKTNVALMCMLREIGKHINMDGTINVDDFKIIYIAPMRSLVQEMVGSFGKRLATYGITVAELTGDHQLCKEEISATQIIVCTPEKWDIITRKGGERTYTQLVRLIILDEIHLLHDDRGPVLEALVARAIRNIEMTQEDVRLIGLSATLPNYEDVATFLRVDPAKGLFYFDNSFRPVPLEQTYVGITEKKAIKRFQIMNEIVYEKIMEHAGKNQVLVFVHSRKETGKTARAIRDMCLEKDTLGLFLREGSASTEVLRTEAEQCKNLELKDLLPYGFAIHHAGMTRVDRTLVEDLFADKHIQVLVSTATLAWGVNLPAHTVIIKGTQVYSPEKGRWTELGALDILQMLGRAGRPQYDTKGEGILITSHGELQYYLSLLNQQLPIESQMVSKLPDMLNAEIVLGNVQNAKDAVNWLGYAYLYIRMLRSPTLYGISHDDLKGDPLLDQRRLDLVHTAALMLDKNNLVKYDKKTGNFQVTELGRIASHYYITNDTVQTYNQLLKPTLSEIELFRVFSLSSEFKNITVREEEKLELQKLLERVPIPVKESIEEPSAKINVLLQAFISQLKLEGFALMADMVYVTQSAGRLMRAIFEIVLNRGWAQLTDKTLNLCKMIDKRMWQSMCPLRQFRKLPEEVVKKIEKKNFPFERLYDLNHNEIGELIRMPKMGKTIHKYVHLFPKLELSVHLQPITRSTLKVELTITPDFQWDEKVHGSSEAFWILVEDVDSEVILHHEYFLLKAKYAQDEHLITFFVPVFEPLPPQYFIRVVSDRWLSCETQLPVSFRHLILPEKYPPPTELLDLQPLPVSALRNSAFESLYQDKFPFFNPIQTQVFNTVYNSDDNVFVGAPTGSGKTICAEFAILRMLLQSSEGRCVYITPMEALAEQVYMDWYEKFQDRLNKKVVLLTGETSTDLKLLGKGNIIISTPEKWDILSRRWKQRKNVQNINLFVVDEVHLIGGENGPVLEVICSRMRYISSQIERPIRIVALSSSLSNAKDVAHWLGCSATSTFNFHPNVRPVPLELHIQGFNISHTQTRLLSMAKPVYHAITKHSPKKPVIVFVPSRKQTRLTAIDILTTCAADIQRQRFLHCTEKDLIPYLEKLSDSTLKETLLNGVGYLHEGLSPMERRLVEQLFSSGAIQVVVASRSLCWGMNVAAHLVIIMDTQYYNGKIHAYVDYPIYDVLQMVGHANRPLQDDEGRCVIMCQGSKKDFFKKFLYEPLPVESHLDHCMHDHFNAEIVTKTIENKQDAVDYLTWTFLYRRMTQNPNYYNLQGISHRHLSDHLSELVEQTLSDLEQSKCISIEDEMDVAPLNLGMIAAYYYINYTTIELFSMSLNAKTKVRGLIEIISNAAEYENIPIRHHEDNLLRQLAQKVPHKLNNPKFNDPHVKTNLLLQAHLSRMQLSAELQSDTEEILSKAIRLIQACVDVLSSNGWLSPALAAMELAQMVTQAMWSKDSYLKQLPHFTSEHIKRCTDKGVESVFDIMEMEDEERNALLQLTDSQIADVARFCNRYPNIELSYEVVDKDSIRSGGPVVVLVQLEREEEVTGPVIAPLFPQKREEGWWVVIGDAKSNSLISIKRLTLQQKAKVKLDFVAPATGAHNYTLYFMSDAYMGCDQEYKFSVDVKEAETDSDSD
UniProt P62318: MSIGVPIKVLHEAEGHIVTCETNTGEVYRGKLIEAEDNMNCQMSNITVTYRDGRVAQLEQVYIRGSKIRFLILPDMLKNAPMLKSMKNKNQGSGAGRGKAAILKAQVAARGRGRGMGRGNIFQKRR
UniProt P62304: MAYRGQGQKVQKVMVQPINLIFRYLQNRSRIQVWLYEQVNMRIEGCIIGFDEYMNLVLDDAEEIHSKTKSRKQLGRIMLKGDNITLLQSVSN
UniProt P61758: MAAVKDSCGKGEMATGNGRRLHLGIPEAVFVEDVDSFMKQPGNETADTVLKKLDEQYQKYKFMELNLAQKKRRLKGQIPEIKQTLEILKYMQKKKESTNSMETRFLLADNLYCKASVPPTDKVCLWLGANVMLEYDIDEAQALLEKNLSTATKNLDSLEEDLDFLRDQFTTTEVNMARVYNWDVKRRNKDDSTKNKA

For this assay, the target named is GFP-tagged PRPF19 (human) (UniProt Q9UMS4). The assay can be described thus: affinity purification with mass spectrometry; adapted SILAC-based AP: heavy-labelled HEK293T cells expressing the GFP-tagged RBUL mixed in equal amounts with light-labelled cells expressing GFP before lysis in mRIPA buffer; GFP-trap agarose beads, 1 h at 4 °C; on-bead trypsin digest, LC-MS/MS; putative interactors at mean z-score ≥ 2.

These are yes or no findings as the source states them, for the method shown. In cells and extracts the contact can be indirect. A yes stands for co-enrichment or nearness to the bait. Other partners may have been found.

For the molecule BAG6/BAT3 (from UniProt P46379 1-1132), the binding result is listed as “binds”.

For DDB1 (from UniProt Q16531 1-1140), the binding result is recorded as “binds”.

On to DNAJA1 (from UniProt P31689 1-397), for which the binding entry is on record as “binds”.

With GET4/TRC35 (from UniProt Q7L5D6 1-327), the binding result is recorded as “binds”.

Regarding HSP90AB1 (from UniProt P08238 1-724), the binding result is reported as “binds”.

Regarding MDC1 (from UniProt Q14676 1-2089), the binding entry is listed as “binds”.

Regarding PFDN1 (from UniProt O60925 1-122), the binding entry is reported as “binds”.

Turning to PFDN2 (from UniProt Q9UHV9 1-154), the binding entry was “binds”.

Take PFDN4 (from UniProt Q9NQP4 1-134): the binding entry was “binds”.

Consider PFDN6 (from UniProt O15212 1-129), for which the binding result is reported as “binds”.

As for PSMC1 (from UniProt P62191 1-440), the binding result was “binds”.

PSMC2 (from UniProt P35998 1-433): the binding result is “binds”.

Regarding PSMC5 (from UniProt P62195 1-406), the binding entry was “binds”.

PSMC6 (from UniProt P62333 1-389): the binding result was “binds”.

Turning to PSMD2 (from UniProt Q13200 1-908), the binding entry is listed as “binds”.

Take SNRNP200 (from UniProt O75643 1-2136): the binding result is “binds”.

As to SNRPD3 (from UniProt P62318 1-126), the binding entry was “binds”.

Regarding SNRPE (from UniProt P62304 1-92), the binding entry is recorded as “binds”.

For VBP1/PFDN3 (from UniProt P61758 1-197), the binding entry is given as “binds”.

B1: AQR (protein, UniProt O60306 1-1485)
chain: MAAPAQPKKIVAPTVSQINAEFVTQLACKYWAPHIKKKSPFDIKVIEDIYEKEIVKSRFAIRKIMLLEFSQYLENYLWMNYSPEVSSKAYLMSICCMVNEKFRENVPAWEIFKKKPDHFPFFFKHILKAALAETDGEFSLHEQTVLLLFLDHCFNSLEVDLIRSQVQQLISLPMWMGLQLARLELELKKTPKLRKFWNLIKKNDEKMDPEAREQAYQERRFLSQLIQKFISVLKSVPLSEPVTMDKVHYCERFIELMIDLEALLPTRRWFNTILDDSHLLVHCYLSNLVRREEDGHLFSQLLDMLKFYTGFEINDQTGNALTENEMTTIHYDRITSLQRAAFAHFPELYDFALSNVAEVDTRESLVKFFGPLSSNTLHQVASYLCLLPTLPKNEDTTFDKEFLLELLVSRHERRISQIQQLNQMPLYPTEKIIWDENIVPTEYYSGEGCLALPKLNLQFLTLHDYLLRNFNLFRLESTYEIRQDIEDSVSRMKPWQSEYGGVVFGGWARMAQPIVAFTVVEVAKPNIGENWPTRVRADVTINLNVRDHIKDEWEGLRKHDVCFLITVRPTKPYGTKFDRRRPFIEQVGLVYVRGCEIQGMLDDKGRVIEDGPEPRPNLRGESRTFRVFLDPNQYQQDMTNTIQNGAEDVYETFNIIMRRKPKENNFKAVLETIRNLMNTDCVVPDWLHDIILGYGDPSSAHYSKMPNQIATLDFNDTFLSIEHLKASFPGHNVKVTVEDPALQIPPFRITFPVRSGKGKKRKDADVEDEDTEEAKTLIVEPHVIPNRGPYPYNQPKRNTIQFTHTQIEAIRAGMQPGLTMVVGPPGTGKTDVAVQIISNIYHNFPEQRTLIVTHSNQALNQLFEKIMALDIDERHLLRLGHGEEELETEKDFSRYGRVNYVLARRIELLEEVKRLQKSLGVPGDASYTCETAGYFFLYQVMSRWEEYISKVKNKGSTLPDVTEVSTFFPFHEYFANAPQPIFKGRSYEEDMEIAEGCFRHIKKIFTQLEEFRASELLRSGLDRSKYLLVKEAKIIAMTCTHAALKRHDLVKLGFKYDNILMEEAAQILEIETFIPLLLQNPQDGFSRLKRWIMIGDHHQLPPVIKNMAFQKYSNMEQSLFTRFVRVGVPTVDLDAQGRARASLCNLYNWRYKNLGNLPHVQLLPEFSTANAGLLYDFQLINVEDFQGVGESEPNPYFYQNLGEAEYVVALFMYMCLLGYPADKISILTTYNGQKHLIRDIINRRCGNNPLIGRPNKVTTVDRFQGQQNDYILLSLVRTRAVGHLRDVRRLVVAMSRARLGLYIFARVSLFQNCFELTPAFSQLTARPLHLHIIPTEPFPTTRKNGERPSHEVQIIKNMPQMANFVYNMYMHLIQTTHHYHQTLLQLPPAMVEEGEEVQNQETELETEEEAMTVQADIIPSPTDTSCRQETPAFQTDTTPSETGATSTPEAIPALSETTPTVVGAVSAPAEANTPQDATSAPEETK
With B1, the binding result was “binds”.

B2: SNW1 (protein, UniProt Q13573 1-536)
chain: MALTSFLPAPTQLSQDQLEAEEKARSQRSRQTSLVSSRREPPPYGYRKGWIPRLLEDFGDGGAFPEIHVAQYPLDMGRKKKMSNALAIQVDSEGKIKYDAIARQGQSKDKVIYSKYTDLVPKEVMNADDPDLQRPDEEAIKEITEKTRVALEKSVSQKVAAAMPVRAADKLAPAQYIRYTPSQQGVAFNSGAKQRVIRMVEMQKDPMEPPRFKINKKIPRGPPSPPAPVMHSPSRKMTVKEQQEWKIPPCISNWKNAKGYTIPLDKRLAADGRGLQTVHINENFAKLAEALYIADRKAREAVEMRAQVERKMAQKEKEKHEEKLREMAQKARERRAGIKTHVEKEDGEARERDEIRHDRRKERQHDRNLSRAAPDKRSKLQRNENRDISEVIALGVPNPRTSNEVQYDQRLFNQSKGMDSGFAGGEDEIYNVYDQAWRGGKDMAQSIYRPSKNLDKDMYGDDLEARIKTNRFVPDKEFSGSDRRQRGREGPVQFEEDPFGLDKFLEEAKQHGGSKRPSDSSRPKEHEHEGKKRRKE
B2: the binding entry is given as “binds”.

B3: UBL4A (protein, UniProt P11441 1-157)
chain: MQLTVKALQGRECSLQVPEDELVSTLKQLVSEKLNVPVRQQRLLFKGKALADGKRLSDYSIGPNSKLNLVVKPLEKVLLEEGEAQRLADSPPPQVWQLISKVLARHFSAADASRVLEQLQRDYERSLSRLTLDDIERLASRFLHPEVTETMEKGFSK
As for B3, the binding entry is “binds”.

B4: ubiquitin-specific peptidase USP19 (protein, UniProt O94966 1-1318)
chain: MSGGASATGPRRGPPGLEDTTSKKKQKDRANQESKDGDPRKETGSRYVAQAGLEPLASGDPSASASHAAGITGSRHRTRLFFPSSSGSASTPQEEQTKEGACEDPHDLLATPTPELLLDWRQSAEEVIVKLRVGVGPLQLEDVDAAFTDTDCVVRFAGGQQWGGVFYAEIKSSCAKVQTRKGSLLHLTLPKKVPMLTWPSLLVEADEQLCIPPLNSQTCLLGSEENLAPLAGEKAVPPGNDPVSPAMVRSRNPGKDDCAKEEMAVAADAATLVDEPESMVNLAFVKNDSYEKGPDSVVVHVYVKEICRDTSRVLFREQDFTLIFQTRDGNFLRLHPGCGPHTTFRWQVKLRNLIEPEQCTFCFTASRIDICLRKRQSQRWGGLEAPAARVGGAKVAVPTGPTPLDSTPPGGAPHPLTGQEEARAVEKDKSKARSEDTGLDSVATRTPMEHVTPKPETHLASPKPTCMVPPMPHSPVSGDSVEEEEEEEKKVCLPGFTGLVNLGNTCFMNSVIQSLSNTRELRDFFHDRSFEAEINYNNPLGTGGRLAIGFAVLLRALWKGTHHAFQPSKLKAIVASKASQFTGYAQHDAQEFMAFLLDGLHEDLNRIQNKPYTETVDSDGRPDEVVAEEAWQRHKMRNDSFIVDLFQGQYKSKLVCPVCAKVSITFDPFLYLPVPLPQKQKVLPVFYFAREPHSKPIKFLVSVSKENSTASEVLDSLSQSVHVKPENLRLAEVIKNRFHRVFLPSHSLDTVSPSDTLLCFELLSSELAKERVVVLEVQQRPQVPSVPISKCAACQRKQQSEDEKLKRCTRCYRVGYCNQLCQKTHWPDHKGLCRPENIGYPFLVSVPASRLTYARLAQLLEGYARYSVSVFQPPFQPGRMALESQSPGCTTLLSTGSLEAGDSERDPIQPPELQLVTPMAEGDTGLPRVWAAPDRGPVPSTSGISSEMLASGPIEVGSLPAGERVSRPEAAVPGYQHPSEAMNAHTPQFFIYKIDSSNREQRLEDKGDTPLELGDDCSLALVWRNNERLQEFVLVASKELECAEDPGSAGEAARAGHFTLDQCLNLFTRPEVLAPEEAWYCPQCKQHREASKQLLLWRLPNVLIVQLKRFSFRSFIWRDKINDLVEFPVRNLDLSKFCIGQKEEQLPSYDLYAVINHYGGMIGGHYTACARLPNDRSSQRSDVGWRLFDDSTVTTVDESQVVTRYAYVLFYRRRNSPVERPPRAGHSEHHPDLGPAAEAAASQASRIWQELEAEEEPVPEGSGPLGPWGPQDWVGPLPRGPTTPDEGCLRYFVLGTVAALVALVLNVFYPLVSQSRWR
For the molecule B4, the binding result is recorded as “binds”.

B5: PLRG1 (protein, UniProt O43660 1-514)
chain: MVEEVQKHSVHTLVFRSLKRTHDMFVADNGKPVPLDEESHKRKMAIKLRNEYGPVLHMPTSKENLKEKGPQNATDSYVHKQYPANQGQEVEYFVAGTHPYPPGPGVALTADTKIQRMPSESAAQSLAVALPLQTKADANRTAPSGSEYRHPGASDRPQPTAMNSIVMETGNTKNSALMAKKAPTMPKPQWHPPWKLYRVISGHLGWVRCIAVEPGNQWFVTGSADRTIKIWDLASGKLKLSLTGHISTVRGVIVSTRSPYLFSCGEDKQVKCWDLEYNKVIRHYHGHLSAVYGLDLHPTIDVLVTCSRDSTARIWDVRTKASVHTLSGHTNAVATVRCQAAEPQIITGSHDTTIRLWDLVAGKTRVTLTNHKKSVRAVVLHPRHYTFASGSPDNIKQWKFPDGSFIQNLSGHNAIINTLTVNSDGVLVSGADNGTMHLWDWRTGYNFQRVHAAVQPGSLDSESGIFACAFDQSESRLLTAEADKTIKVYREDDTATEETHPVSWKPEIIKRKRF
B5: the binding result was “binds”.

B6: XAB2 (protein, UniProt Q9HCS7 1-855)
chain: MVVMARLSRPERPDLVFEEEDLPYEEEIMRNQFSVKCWLRYIEFKQGAPKPRLNQLYERALKLLPCSYKLWYRYLKARRAQVKHRCVTDPAYEDVNNCHERAFVFMHKMPRLWLDYCQFLMDQGRVTHTRRTFDRALRALPITQHSRIWPLYLRFLRSHPLPETAVRGYRRFLKLSPESAEEYIEYLKSSDRLDEAAQRLATVVNDERFVSKAGKSNYQLWHELCDLISQNPDKVQSLNVDAIIRGGLTRFTDQLGKLWCSLADYYIRSGHFEKARDVYEEAIRTVMTVRDFTQVFDSYAQFEESMIAAKMETASELGREEEDDVDLELRLARFEQLISRRPLLLNSVLLRQNPHHVHEWHKRVALHQGRPREIINTYTEAVQTVDPFKATGKPHTLWVAFAKFYEDNGQLDDARVILEKATKVNFKQVDDLASVWCQCGELELRHENYDEALRLLRKATALPARRAEYFDGSEPVQNRVYKSLKVWSMLADLEESLGTFQSTKAVYDRILDLRIATPQIVINYAMFLEEHKYFEESFKAYERGISLFKWPNVSDIWSTYLTKFIARYGGRKLERARDLFEQALDGCPPKYAKTLYLLYAQLEEEWGLARHAMAVYERATRAVEPAQQYDMFNIYIKRAAEIYGVTHTRGIYQKAIEVLSDEHAREMCLRFADMECKLGEIDRARAIYSFCSQICDPRTTGAFWQTWKDFEVRHGNEDTIKEMLRIRRSVQATYNTQVNFMASQMLKVSGSATGTVSDLAPGQSGMDDMKLLEQRAEQLAAEAERDQPLRAQSKILFVRSDASREELAELAQQVNPEEIQLGEDEDEDEMDLEPNEVRLEQQSVPAAVFGSLKED
Take B6: the binding entry is listed as “binds”.
